Test results published in publication PMC6603209.

T1: N-terminal 3xFLAG-tagged PII fusion protein (Synechocystis sp. PCC 6803)
T1 sequence: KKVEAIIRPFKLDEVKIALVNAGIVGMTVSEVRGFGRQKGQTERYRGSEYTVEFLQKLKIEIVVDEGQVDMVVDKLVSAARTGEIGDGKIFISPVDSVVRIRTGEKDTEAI

B1: Sll0944 (protein, UniProt P77971 1-164)
chain: MQCLGKIFLSPGTKPESKNLIVIIFTADRDQRVLALSRIVKRPFFNKNPMPAMSQILDPIPNNQPSALFCCYVNATNQIQVARITNVPNWYFERVVFPGQRLVFEAVPSAQLEIHTGMMASSIISDTIPCEQLSIDPDGLAAGGFISPEKEHESEDMTSQSLVA
B2: UreA (protein, UniProt P73796 1-100)
chain: MQLSPQEKDKLLIFTASLVAERRKARGLKLNYPEAVAYISAAILEGARDGRTVAELMNYGATLLSRDEVMEGVPEMLPEVQVEATFPDGTKLVTVHEPIR
B3: UreB (protein, UniProt P74386 1-105)
chain: MATMIPGEIITPEGDIELNVGRSTCTINVANTGDRPIQVGSHYHFYEVNAALQFDRDLAKGMRLDIPAGTAVRFEPGDEKNVNLVAYAGSREIYGFNGLVNGPLE
B4: Amt1 ammonium permease (protein, UniProt P54147 1-507)
chain: MSNSILSKLNVGERSPVNRTHSSRTEAEKSSLFRFVRRKINSPWLACVPLTALIVAIWNAAAIAQDTEIVNITVETVNENVATLQGTLNAIWILIAAILVIFMNAGFGMLETGLCRQKNAVNILTKNLIVFALATIAYWAIGFSLMFGSSGNPFVGFGGFFLSGDHTNYGLSPFPEGLPVAVFFLFQVAFSATAATIVSGAVAERIKFNEFLIFSVLLVGIAYPITGHWVWDAGGWLYTMGFMDFAGSTVVHSVGGWAALAGAFLLGPRLGKFVDGRPGAIPGHNMGFAMLGCLILWIGWFGFNPGSQLAADQACAYIAVTTNLAASAGGLTATFTSWLKDGKPDLTMVINGVLAGLVGITAGCAGVSYWGSVIIGGIAGILVVYSVAFFDKIKIDDPVGAISVHLVNGVWGTLAVGFFNMEKGLFYGGGINQLIIQIVGILAIGAFTAIFSFVVWAILKQTMGIRVSGEEEMIGLDIGEHGMEAYTGFVKETDSFGSAVSGATVPE
B5: NrtA (protein, UniProt P73452 29-446)
chain: CTSPTTTSTGTGTGSSTDQAISPLVEGENAPEVTTAKLGFIALTDAAPLIIAKEKGFYAKYGMPDVEVLKQASWGTTRDNLVLGSASGGIDGAHILTPMPYLITMGTVTDGKPTPMYILARLNVNGQGIQLGNNYKDLKVGTDAAPLKEAFAKVTDPKVAMTFPGGTHDMWIRYWLAAGGMEPGKDFSTIVVPPAQMVANVKVNAMESFCVGEPWPLQTVNQGVGYQALTTGQLWKDHPEKAFGMRADWVDQNPKAAKALLMAVMEAQQWCDQAENKEEMCQILSKREWFKVPFEDIIDRSKGIYNFGNGQETFEDQEIMQKYWVDNASYPYKSHDQWFLTENIRWGYLPASTDTKAIVDKVNREDLWREAAQALEVPADQIPSSPSRGIETFFDGITFDPENPQAYLDSLKIKSIKA
B6: NrtB (protein, UniProt P73451 1-275)
chain: MASSTAGLRPRRKKNPLSFIYSPKVIRPAVAIAVLLVVWQILCSGEGSNLPSPVQVLEQTYPLILNPFFDNGGTDKGLGIQIFASLTRVAVGFSAAAVVGIALGILIGSSKFMYDALDPIFQVLRTIPPLAWLPIALAALQEAEPSAIFVIFITAIWPIVINTTVGAQQVPQDYRNVSRVLKLSKSQYFFNILFPAAVPYIFTGLRIGIGLSWLAIVAAEMLIGGVGIGFFIWDAYNSSLISEIIIALIYVGIVGLLLDRFIAFLESLVVPAEQK
B7: NrtC (protein, UniProt P73450 1-670)
chain: MMPFIEIDHVDRIFPLPDGGRYIALKNIELKISQGEFISLIGHSGCGKSTLLNMISGLDKPTFGGVIMEGKEITEPGPERMVVFQNYSLLPWLTVRQNIALAVNRVLRDLPKPEQEKIIDDNIALVGLQRAAHKRPGELSGGMKQRVAIARALSTRPKVLLLDEPFGALDALTRGNLQERLMEIVQESGVTCIMVTHDVDEALLLSDRVVMLTTGPEAHIGQILEVPIPRPRHRLEVVNHPSYYALRGEMVYFLNQQKRAKKVGAVSQFAEAMGGNGLEKINLDLGFIPLTDCAPLVVAKEKGFFQKHGLEQVNLVKEPSWQAIADGIRERRLDGAQMVAGMPLALTLGMGGKTPLPMVTAMVMSRNGNAITLSKKFAEAGVKTLEDLRLKLAETPDQVSTLGMVHPASMQNLLLRYWLASGSIDPDQDINLMRLPPPQMVSNLEAGNIDGFCVGEPWNSYAVKQNLGYVIATDLDIWNGHPEKVLGMREEWVNKYPATHLALVKALLEACEYCDDRRHRQEILDYLALPQYVGTSTEYISPGFLTEYDQGNDAEAEMLLDFNQFYVKQSNYPSRSEGLWILTQLARWGYIDFPKNWVEIIERVRRPDLFGEACRHLGWPDLEGDHHNVSLFDGMVFTPNDPLGYIKRFTIHRDIQVTEILIDQIDQVNQ
B8: UreD (protein, UniProt P73047 1-270)
chain: MLSASTVNPSAPWQANLWLRYDRPGHRTRMVECLVQAPLKVQRSFYPDDTGQCQTMLLHTGGGMVGGDRLGYDIVLEAQSDVCFTSASAGKIYRSLGPWSEQTVNLEVRVGASVLWCPQETIIFDQARYQQNFCIKLQEQARFKGWEIVRLGRTARGEKFTQGHWRSSWEIWQGDKLIWGERQQLIGSEQLYESPNALAGFTCLGTYVDLSRSFDQDLVHQAQEIIHSQGRSPQFGLTLTATQGLIARYRGNSTQEVKDIFTQLSQVISP
B9: UreF (protein, UniProt P73327 1-236)
chain: MLSGSAQLKLLQLVSPTLPVGAYNYSEGLEWLIERGNITNADTLGAWITQELCRGSITVDTAIMVRAHRLAGQMPKTDILPSPTLKHLSYWNQWLTATRESRELREQSLQMGGSLRKLLLDLEPTVQSWFEPIPPTEPCNYAIAFGLGAAFWGIDLHQSGLGYLHSWANNLISAGLRLIPLGQTAGQKLLLHLTPTILHQWQQILLLGDDDLYSCSWGLALASMGHESQYTRLFRS
B10: UreG (protein, UniProt P72955 1-206)
chain: MAQTPLRIGIAGPVGSGKTALLEALCKALRQKYQLAVVTNDIYTQEDAQFLVRAEALTPDRILGVETGGCPHTAIREDASLNLAAIADLEARFMPLDMVFLESGGDNLAATFSPELVDLTLYVIDVAAGDKIPRKGGPGITKSDLLVINKIDLAPMVGADLGIMDRDAKKMRGEKPFVFTNLKTATGLSTVVDFVEHYLPTKVLAS

What follows are molecules tested against C-terminal 3xFLAG-tagged PII fusion protein (Synechocystis sp. PCC 6803) (assay: affinity purification with mass spectrometry; anti-FLAG-M2-agarose pull-down of 3xFLAG-tagged PII from DDM-solubilised Synechocystis extracts (IP buffer 25 mM MES/NaOH pH 6.5, 5 mM CaCl2, 10 mM MgCl2, 20% glycerol, 0.04% DDM in washes), elution with 3xFLAG peptide, nanoLC-MS/MS, label free quantification against the non-transformed wild type; cells grown with nitrate or with urea; two replicates).
In the case of B1, the binding is reported as “binds”. B2 was tested, and the binding was “no binding”. In the case of B3, the binding is reported as “no binding”. B4 was tested, and the binding was “binds”. In the case of B5, the binding is reported as “no binding”. B6 was tested, and the binding was “binds”. With B7 the binding was “binds”.

These molecules were tested against T1, N-terminal 3xFLAG-tagged PII fusion protein (Synechocystis sp. PCC 6803) in the same assay as above.
B1 was tested, and the binding was “binds”. With B2 the binding was “binds”. In the case of B3, the binding is reported as “binds”. In the case of B8, the binding is reported as “binds”. B9 was tested, and the binding was “binds”. With B10 the binding was “binds”. For B4, the binding was “binds”. With B5 the binding was “binds”. In the case of B6, the binding is reported as “binds”. B7 was tested, and the binding was “binds”.

Biological target: T1, N-terminal 3xFLAG-tagged PII fusion protein (Synechocystis sp. PCC 6803)
Assay: as above
Remark: another data set of the same source
In the case of UrtB (from UniProt P73350), the binding is reported as “binds”. UrtE (from UniProt Q55753) was tested, and the binding was “binds”. With UrtC (from UniProt P73351) the binding was “binds”. For UrtA, the binding was “binds”. With NrtD (from UniProt P73449) the binding was “binds”. In the case of “PII phosphatase PphA (from UniProt P73626) (enzyme)”, the binding is reported as “binds”. For UreC (from UniProt P73061 1-569), the binding was “binds”. For PipX, the binding was “binds”. For Ssr0692 (from UniProt P74791), the binding was “binds”.

Results are given in words; binding and its absence hold for the method and conditions named. Binding seen in cells or lysates may run through a third protein. A yes stands for co-enrichment or nearness to the bait. Other partners may have been found. For some assays here: A no says only that the protein was not detected with the bait. For some assays here: Sequences can lack the tags named with a protein.
